# The supplement of paper PMC6411743
# ± gives the standard deviation of the averaged measurements. Some of the results follow.
# Target: T1, UniProt Q96JY6 and related entries
# T1 sequence (whole entry): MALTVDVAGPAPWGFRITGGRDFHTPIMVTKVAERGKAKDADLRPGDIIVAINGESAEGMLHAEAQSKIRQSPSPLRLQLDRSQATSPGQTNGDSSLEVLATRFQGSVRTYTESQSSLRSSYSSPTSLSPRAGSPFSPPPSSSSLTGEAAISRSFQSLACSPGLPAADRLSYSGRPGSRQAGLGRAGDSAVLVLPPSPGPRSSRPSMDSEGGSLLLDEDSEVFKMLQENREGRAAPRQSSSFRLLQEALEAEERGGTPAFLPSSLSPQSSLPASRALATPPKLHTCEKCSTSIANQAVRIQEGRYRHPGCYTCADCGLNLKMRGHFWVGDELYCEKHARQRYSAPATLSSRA
# Test: NP40-soluble protein abundance relative to vehicle (solubility fold change) (ratio); higher = more soluble protein in presence of GTP
# Protocol: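 Solubility proteome profiling in Jurkat crude lysate. Lysate was treated with Mg-GTP (0.1-10 mM) for 10 min at room temperature and 3 min at 37 °C, then solubilised with 0.8% NP40 and benzonase, followed by ultracentrifugation. Proteins were quantified by TMT10 LC-MS/MS; the value is the NP40-soluble abundance relative to the NP40-processed vehicle, from 3 independent experiments.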
compound,measurement,setting,value
Nc1nc2c(ncn2[C@@H]2O[C@H](COP(=O)(O)OP(=O)(O)OP(=O)(O)O)[C@@H](O)[C@H]2O)c(=O)[nH]1 [guanosine triphosphate],NP40-soluble protein abundance,concentration: 0.1mM,0.99 ± 0.071
same,NP40-soluble protein abundance,concentration: 0.5mM,0.996 ± 0.042
same,NP40-soluble protein abundance,concentration: 1mM,1.03 ± 0.074
same,NP40-soluble protein abundance,concentration: 2mM,1.02 ± 0.057
same,NP40-soluble protein abundance,concentration: 4mM,0.981 ± 0.089
same,NP40-soluble protein abundance,concentration: 6mM,1.02 ± 0.09
same,NP40-soluble protein abundance,concentration: 8mM,1.03 ± 0.081
same,NP40-soluble protein abundance,concentration: 10mM,1.03 ± 0.015
